No constants are given. Whether binding was seen depends on the method and setting. In cells and extracts the contact can be indirect. For some assays here: A result given as binding can be weak or reduced; the word gives no strength.

By UniProt entry, the sequences of proteins in these tests, tags left out.
UniProt Q6AI39: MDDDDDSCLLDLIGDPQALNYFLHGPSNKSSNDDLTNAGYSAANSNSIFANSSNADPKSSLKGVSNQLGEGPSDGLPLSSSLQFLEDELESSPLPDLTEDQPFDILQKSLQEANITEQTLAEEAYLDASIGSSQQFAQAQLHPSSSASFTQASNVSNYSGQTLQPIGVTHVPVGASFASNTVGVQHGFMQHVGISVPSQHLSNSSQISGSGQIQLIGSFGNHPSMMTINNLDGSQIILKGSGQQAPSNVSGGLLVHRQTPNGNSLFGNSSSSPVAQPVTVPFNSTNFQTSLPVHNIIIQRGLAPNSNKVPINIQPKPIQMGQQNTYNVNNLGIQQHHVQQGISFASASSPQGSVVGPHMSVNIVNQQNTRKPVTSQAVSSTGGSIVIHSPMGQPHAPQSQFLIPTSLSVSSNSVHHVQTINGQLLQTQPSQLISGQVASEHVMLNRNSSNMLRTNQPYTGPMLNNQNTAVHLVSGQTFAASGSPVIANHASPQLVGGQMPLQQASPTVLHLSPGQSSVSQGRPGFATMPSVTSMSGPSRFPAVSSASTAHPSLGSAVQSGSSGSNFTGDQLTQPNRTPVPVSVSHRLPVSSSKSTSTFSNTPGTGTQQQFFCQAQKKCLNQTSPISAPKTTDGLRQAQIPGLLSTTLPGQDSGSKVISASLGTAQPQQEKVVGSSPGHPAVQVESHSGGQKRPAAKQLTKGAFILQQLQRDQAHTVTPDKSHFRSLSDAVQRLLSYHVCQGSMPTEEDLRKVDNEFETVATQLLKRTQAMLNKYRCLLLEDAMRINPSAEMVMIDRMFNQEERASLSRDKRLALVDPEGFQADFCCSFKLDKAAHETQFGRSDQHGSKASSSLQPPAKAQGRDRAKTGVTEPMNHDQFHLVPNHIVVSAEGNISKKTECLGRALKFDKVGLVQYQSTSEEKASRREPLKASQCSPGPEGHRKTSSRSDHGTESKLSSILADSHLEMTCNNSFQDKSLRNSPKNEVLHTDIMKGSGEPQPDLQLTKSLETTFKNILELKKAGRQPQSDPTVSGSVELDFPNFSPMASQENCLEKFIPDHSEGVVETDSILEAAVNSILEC

The target in assay [1] is i∆HSA (inducible BRG1 with the HSA domain deleted, with C-terminal V5 tag) (human) (UniProt P51532). Kind of assay: co-IP; immunoprecipitation (anti-V5, BCL7B, BCL7C, BAF53a, BAF155, GLTSCR1L, BAF45b or IgG) from iBRG1 or i∆HSA cells after 24 h doxycycline; cells crosslinked with 1% formaldehyde, high-salt extraction (420 mM NaCl), nuclease, diluted 1:5 in IP buffer (100 mM NaCl, 0.1% NP-40), Protein G Dynabeads, Western blot.

The target in assay [2] is B-cell CLL/lymphoma 7 protein family member C (BCL7C) (human (endogenous in SW-13)) (UniProt Q8WUZ0). The description is as above.

Consider GLTSCR1L (from UniProt Q6AI39 1-1079), for which, in assay [1], the binding result is “binds”.

In the case of “i∆HSA (inducible BRG1 with the HSA domain deleted, with C-terminal V5 tag) (from UniProt P51532) (enzyme)”, the binding entry in assay [2] is on record as “no binding”.

For the origin of these results see article PMC9939006.
